The whole screen tested about 140,000 compounds, of which about 4,300 (3.1%) were called active. This list was built around the results that the source calls inconclusive (neither active nor inactive); the mix of calls is not that of the screen.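 Rule for the calls: active = readout at or below -70, meaning at least 70% loss of cells showing the perinucleolar compartment, a nuclear body marking cancer cells; inconclusive = readout between -30 and a set limit; inactive = the rest.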
Assay: High Content Assay for Compounds that inhibit the Assembly of the Perinucleolar Compartment;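 note: plate controls were DMSO wells for no effect and camptothecin positive control wells for full effect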
Conditions: PC3M PTB-GFP, PNC prevalence imaging, 16 h; at 10 µM; stronger effect = lower value
Summary of the method: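 PC3M cells stably expressing PTB-GFP, 750–1000 cells/well, treated 16 h at 37 °C with compound (23 nl of library stock), in duplicate. After paraformaldehyde fixation and Hoechst stain, imaged at 20x; PNC prevalence scored by image analysis.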
For `COc1ccccc1CC(=O)N1CCCc2ccccc21`, the activity change (PNC), negative = inhibition was inactive: -7.69%. With `Cc1nn(-c2ccccc2)c(/N=C/c2ccc(O)cc2)c1-c1ccccc1` the activity change (PNC), negative = inhibition was inconclusive: -31.2%. In the case of `CN(C)CCN1C(=O)c2oc3ccccc3c(=O)c2C1c1ccc(F)cc1` (stereo unspecified), the activity change (PNC), negative = inhibition is reported as inconclusive: -54.1%. In the case of `CCC(C)c1ccccc1NC(=O)CN1CCN(C/C=C/c2ccccc2)CC1` (stereo unspecified), the activity change (PNC), negative = inhibition is reported as inactive: 11.7%. With `CCCC(=O)C1=C(O)C(C(=O)OC)C(C)(C)CC1=Nc1ccncc1` (stereo unspecified) the activity change (PNC), negative = inhibition was inconclusive: -61.6%. In the case of `COCCCNCC(=O)Nc1sc(C)c(C)c1C(=O)OC`, the activity change (PNC), negative = inhibition is reported as inconclusive: -40.4%. With `COc1ccc(OC)c(S(=O)(=O)N2CCC(C(=O)Nc3cccc(C(F)(F)F)c3)CC2)c1` the activity change (PNC), negative = inhibition was inconclusive: -66.7%. With `O=C(COC(=O)C1(c2cccc(F)c2)CCCC1)NCc1ccc2c(c1)OCO2` the activity change (PNC), negative = inhibition was inconclusive: -35.9%. In the case of `CC(C)CC1NC(=O)N(CC(=O)N2CCN(S(=O)(=O)c3ccccc3)CC2)C1=O` (stereo unspecified), the activity change (PNC), negative = inhibition is reported as inactive: -23.2%. In the case of `CC(NC(=O)C1CCN(S(=O)(=O)N2CCCCCC2)CC1)c1ccccc1` (stereo unspecified), the activity change (PNC), negative = inhibition is reported as inconclusive: -59.2%. With `O=C(Cc1c[nH]c2ccccc12)NCc1ccc(Cl)cc1Cl` the activity change (PNC), negative = inhibition was inactive: 23.2%. In the case of `O=C(CN1CCSCC1)N/N=C/c1ccccc1F`, the activity change (PNC), negative = inhibition is reported as inactive: -10.7%. In the case of `Cc1oc(-c2ccc(Cl)cc2)nc1CN1CCC(C(=O)NCc2cccs2)CC1`, the activity change (PNC), negative = inhibition is reported as inconclusive: -36.8%. For `CCOC(=O)c1[nH]c(C)c(C(=O)NCc2ccccn2)c1C`, the activity change (PNC), negative = inhibition was active: -100%. For `O=Cc1c(-[n+]2ccccc2)nc([O-])n1-c1ccccc1`, the activity change (PNC), negative = inhibition was inconclusive: -32.4%. For `O=C(NCCc1ccccc1)C1CCN(S(=O)(=O)c2ccc(-c3nn[nH]n3)cc2)CC1`, the activity change (PNC), negative = inhibition was inconclusive: -52.5%. With `CCOc1ccc2nc(SCC(=O)Nc3cc4c(cc3C(C)=O)OCO4)[nH]c2c1` the activity change (PNC), negative = inhibition was inactive: 57.2%. In the case of `O=C(CNS(=O)(=O)c1ccc(C(=O)N2CCCCC2)cc1)N1CCCCC1`, the activity change (PNC), negative = inhibition is reported as inactive: -13.3%. With `N=C(CC1CC(=O)NC(=O)C1)C1=C(O)CCCC1=O` the activity change (PNC), negative = inhibition was inconclusive: -36.4%. In the case of `O=C(/C=C/c1ccc(Br)cc1)N1CCN(c2cccc(C(F)(F)F)c2)CC1`, the activity change (PNC), negative = inhibition is reported as inconclusive: -33.7%. With `OC(c1ccc2c(c1)OCO2)c1nccc2ccccc12` (stereo unspecified) the activity change (PNC), negative = inhibition was inconclusive: -45%. In the case of `CCCn1c(SCC(=O)c2ccc(OC)c(OC)c2)nc2c1c(=O)n(C)c(=O)n2C`, the activity change (PNC), negative = inhibition is reported as inactive: 56.5%. With `CCOC(=O)c1[nH]c2c(c1-c1ccccc1)C(=O)CC(c1ccc(OCC)cc1)C2` (stereo unspecified) the activity change (PNC), negative = inhibition was inconclusive: -62.7%. In the case of `CC(C)c1ccc(C(=O)CSc2n[nH]c(-c3ccncc3)n2)cc1`, the activity change (PNC), negative = inhibition is reported as inconclusive: -44.9%. With `O=C(Cn1nnc(-c2ccccc2F)n1)Nc1ccc2c(c1)OCO2` the activity change (PNC), negative = inhibition was inactive: 6.97%. With `Cc1cc(-c2csc(NC(=O)c3ccc(S(=O)(=O)N(C)C)cc3)n2)c(C)n1-c1ccccc1` the activity change (PNC), negative = inhibition was inconclusive: -33.7%. For `CCn1c(SCC(=O)c2c(N)n(C)c(=O)n(C)c2=O)nc2sc(C)c(C)c2c1=O`, the activity change (PNC), negative = inhibition was inconclusive: -63.8%. For `CNC(=O)COC(=O)c1cccnc1SC`, the activity change (PNC), negative = inhibition was inconclusive: -44.6%. For `O=C(c1ccco1)N1CCN(C(=O)c2ccc(Cn3cc(Br)cn3)o2)CC1`, the activity change (PNC), negative = inhibition was inconclusive: -43.1%. For `CCOc1nc(-c2ccc(Cl)cc2)nc2ccccc12`, the activity change (PNC), negative = inhibition was inactive: 25%. In the case of `O=c1c(Cl)cc(Cl)nn1-c1ccccc1`, the activity change (PNC), negative = inhibition is reported as inconclusive: -64.5%. With `COc1cc(NC(=O)c2cccs2)c(C(=O)OCC(=O)NC(=O)NC(C)(C)C)cc1OC` the activity change (PNC), negative = inhibition was active: -97.9%. In the case of `CNC(=O)c1csc(-c2ccncc2)n1`, the activity change (PNC), negative = inhibition is reported as inconclusive: -32.4%. For `CCOc1cc(CNCc2ccncc2)cc(Br)c1OCc1ccccc1F`, the activity change (PNC), negative = inhibition was inconclusive: -30.5%. For `CCOC(=O)c1nn(-c2cccc(Cl)c2)c2nc(Nc3ccccc3)cc(=O)n12`, the activity change (PNC), negative = inhibition was inactive: -24.3%. In the case of `COc1ccc(-c2c(C)[nH]n3c(=O)c(Cc4ccccc4)c(C)nc23)cc1`, the activity change (PNC), negative = inhibition is reported as inactive: 24.4%. For `CCCCN(Cc1ccccc1)C(=O)C1CCN(Cc2sccc2C)CC1`, the activity change (PNC), negative = inhibition was inactive: 30.3%. With `O=c1c2ccccc2nc(SCc2cc(F)cc3c2OCOC3)n1Cc1ccco1` the activity change (PNC), negative = inhibition was inconclusive: -32.2%. With `COC(=O)C/C=C/[C@@H](C)[C@@H](/C=N/OCC[C@@H]1C=C[C@H](OC(C)=O)[C@@H](COC(C)=O)O1)NS(=O)(=O)c1ccc(C)cc1` the activity change (PNC), negative = inhibition was inactive: 37.4%. In the case of `Cc1ccc(S(=O)(=O)N2CCOCC2)cc1NC(=O)COC(=O)C1COc2ccccc2O1` (stereo unspecified), the activity change (PNC), negative = inhibition is reported as inactive: -6.67%. With `COc1ccc(CN(C(=O)c2ccco2)c2ccc(C)cc2)cc1OC` the activity change (PNC), negative = inhibition was inconclusive: -40%. In the case of `CCOC(=O)Cc1[nH]nc2c1C(c1cccc(OC)c1OC)C(C#N)=C(N)O2` (stereo unspecified), the activity change (PNC), negative = inhibition is reported as inconclusive: -41.9%. With `Cn1cc(C2CC(c3ccccc3)=NN2C(=O)c2ccccc2)c2ccccc21` (stereo unspecified) the activity change (PNC), negative = inhibition was inconclusive: -42.6%. With `CCn1c2ccccc2c2cc(NC(=O)c3cc(OC)c(OC)c(OC)c3)ccc21` the activity change (PNC), negative = inhibition was inconclusive: -44.6%. In the case of `O=C(NCc1cccs1)C1CCN(S(=O)(=O)c2ccc(Br)s2)CC1`, the activity change (PNC), negative = inhibition is reported as inactive: -1.61%. With `O=C(CCl)Nc1cccn2ncnc12` the activity change (PNC), negative = inhibition was inactive: 46.4%. In the case of `COc1ccc(C(=O)N2CCCC(c3nc(-c4cc(OC)c(OC)c(OC)c4)no3)C2)cc1` (stereo unspecified), the activity change (PNC), negative = inhibition is reported as inconclusive: -50.4%. For `O=C(CCN1CCN(c2ccccc2F)CC1)Nc1ccccc1F`, the activity change (PNC), negative = inhibition was inconclusive: -47.8%. With `CCOC(=O)Cc1csc(NC(=O)c2ccncc2)n1` the activity change (PNC), negative = inhibition was inconclusive: -37.5%. For `CCN(CC)S(=O)(=O)N1CCC(C(=O)NCc2ccc3c(c2)OCO3)CC1`, the activity change (PNC), negative = inhibition was inactive: -1.81%. In the case of `O=c1cc(O)c2c(=O)n(C3CCCCC3)c3ccccc3c2o1`, the activity change (PNC), negative = inhibition is reported as inactive: 15.6%. With `Nc1nnc(CCS(=O)(=O)c2ccc(Cl)cc2)s1` the activity change (PNC), negative = inhibition was inconclusive: -38.4%. With `COc1ccc(CN(C(=O)c2cccs2)C(C(=O)NC2CCCCC2)c2ccc3ncccc3c2)cc1` (stereo unspecified) the activity change (PNC), negative = inhibition was inactive: 68.7%. In the case of `COc1ccc(OC)c(C2C(C(N)=O)=C(C)Nc3nc(CCCO)nn32)c1` (stereo unspecified), the activity change (PNC), negative = inhibition is reported as inconclusive: -41.6%. In the case of `Cc1cc(NC(=O)c2c(Cl)cnn2C)no1`, the activity change (PNC), negative = inhibition is reported as inconclusive: -52.7%. In the case of `O=C(c1ccccn1)N(Cc1ccco1)C1(C(=O)NC2CCCC2)CCCCC1`, the activity change (PNC), negative = inhibition is reported as inactive: 22%.
